At least one structure is not confirmed: it was looked up by name or label, or the drawing left a doubt.
Experiments:
[1] = tested on: spike protein of the SARS-CoV-2 virion; format: binding
[2] = target: full length SARS-CoV-2 Spike (Severe acute respiratory syndrome coronavirus 2, UniProt P0DTC2); format: binding; conditions: 10 µM

Row | SMILES | enrichment in final round (% of total sequences) [1] | ΔTm, melting point change [2]
1 | CC[C@H](C)[C@@H]1NC(=O)[C@H](Cc2ccc(O)cc2)NC(=O)CSC[C@@H](C(=O)NCC(N)=O)NC(=O)[C@H](C(C)C)NC(=O)[C@H](Cc2ccc(O)cc2)NC(=O)[C@H](CCC(N)=O)NC(=O)[C@H](C(C)C)NC(=O)[C@H](Cc2c[nH]cn2)NC(=O)[C@H]([C@@H](C)O)NC(=O)[C@H](CO)NC(=O)[C@H](Cc2ccc(O)cc2)NC(=O)[C@H](CC(C)C)NC(=O)[C@H](CO)NC(=O)[C@H](CC(=O)O)NC(=O)[C@H](Cc2c[nH]cn2)NC(=O)[C@H](Cc2c[nH]c3ccccc23)NC(=O)[C@H](C(C)C)NC1=O [SARS2L1] | 17.89% | 2 °C
2 | CC[C@H](C)[C@@H]1NC(=O)[C@H](CCC(N)=O)NC(=O)[C@H](CCC(=O)O)NC(=O)[C@H](CCCNC(=N)N)NC(=O)[C@@H]2CCCN2C(=O)[C@H](CCCNC(=N)N)NC(=O)[C@H](CCCNC(=N)N)NC(=O)[C@H](Cc2ccc(O)cc2)NC(=O)CSC[C@@H](C(=O)NCC(N)=O)NC(=O)[C@H](Cc2ccccc2)NC(=O)[C@H](C(C)C)NC(=O)[C@H](Cc2c[nH]c3ccccc23)NC(=O)[C@H](CC(C)C)NC(=O)[C@H](CO)NC(=O)CNC(=O)[C@H]([C@@H](C)CC)NC(=O)[C@H]([C@@H](C)CC)NC1=O [Compound S1b3inL1] | 2.15% | 1 °C
